Laboratory results reported in article PMC7217150, “Synthesis, Modification, and Biological Evaluation of a Library of Novel Water‐Soluble Thiopyridone‐Based Organometallic Complexes and Their Unexpected (Biological) Behavior” (Chemistry (Weinheim an Der Bergstrasse, Germany), 2020).

System: HCT‐116 (colon cancer) spheroids
Settings: HCT‐116 spheroids, respective IC50 concentration, 96 h, LA‐ICP‐TOF‐MS

CC1=C2[O][Rh+]([Cl])[S]=C2C=CN1C.Cc1c(C)c(C)[c-](C)c1C [Compound 5 a, Chlorido[1,2‐dimethyl‐3‐oxo‐κO‐pyridine‐4(1H)‐thionato‐κS](η^5‐1,2,3,4,5‐pentamethylcyclopentadienyl)rhodium(III)]
metal distribution in spheroid sections: accumulated throughout the spheroid sections with higher concentrations at the outer cell layers

CC1=C2[O][Ir+]([Cl])[S]=C2C=CN1C.Cc1c(C)c(C)[c-](C)c1C [Compound 6 a, Chlorido[1,2‐dimethyl‐3‐oxo‐κO‐pyridine‐4(1H)‐thionato‐κS](η^5‐1,2,3,4,5‐pentamethylcyclopentadienyl)iridium(III)]
metal distribution in spheroid sections: enrichment at the outer rim of the tumor spheroid section
